# Results as given in the supplement of paper PMC11438910.
# The other results are listed elsewhere or left out. The signal is at background level for most entries.
# B1: 4-173.3 (protein)
# chain 1: QLQLQESGPGLVKPSETLSLTCAVSGGSINNNYWSWIRQPPGKGLEWIGRIFGSGGSTDYNPSLKSRVTISTDTSKTQFSLNLNSVTAADTAVYFCARGSYQVDYWGQGVLVTVSS
# chain 2: QAALTQPPSMSGSPGQSVTISCTGTSSDIGGWNRVSWYQQYPGKAPKLMIYEVSKRPSGVSDRFSGSKSGNTASLTISGLQAEDEADYYCSSYVHINNALFGGGTRLTVL
# B2: 3S41.4 (protein)
# chain 1: EVQLVESGGGLVQPGGSLRLSCATSGFTFSNYWMYWFRQAPGKGLEWVSTISGSSTNTYYSGSVKGRFTISRDNAKNTLYLQMNSLRAEDTAVYYCARRGTDSSHWYFDLWGPGTPITVSS
# chain 2: EIVMTQSPATLSLSPGERATLSCRASQSVSSNLAWYQQKPGQGPRLLIYDASNRATGIPDRFGGSGSGTDFTLTISSLEPEDVGVYYCQQESNWPLTFGGGTKVEIK
# Legend:
# Assay in all cases: fluorescence intensity of antibody binding to polysaccharide-coupled beads; higher = stronger binding
# [1] = biological target: pneumococcal polysaccharide Pn9N; conditions: antibody concentration 12500 ng/mL
# [2] = biological target: pneumococcal polysaccharide Pn9V
# [3] = biological target: pneumococcal polysaccharide C-Poly-1
# [4] = biological target: pneumococcal polysaccharide C-Poly-2
# [5] = biological target: pneumococcal polysaccharide Pn1
# [6] = biological target: pneumococcal polysaccharide Pn10A
# [7] = biological target: pneumococcal polysaccharide Pn10B
# [8] = biological target: pneumococcal polysaccharide Pn10C
# [9] = biological target: pneumococcal polysaccharide Pn10F
# [10] = biological target: pneumococcal polysaccharide Pn11A
# [11] = biological target: pneumococcal polysaccharide Pn11B
# [12] = biological target: pneumococcal polysaccharide Pn11C
# [13] = biological target: pneumococcal polysaccharide Pn11D
# [14] = biological target: pneumococcal polysaccharide Pn11F
# [15] = biological target: pneumococcal polysaccharide Pn12A
# [16] = biological target: pneumococcal polysaccharide Pn12B
# [17] = biological target: pneumococcal polysaccharide Pn12F
# [18] = biological target: pneumococcal polysaccharide Pn13
# [19] = biological target: pneumococcal polysaccharide Pn14
# [20] = biological target: pneumococcal polysaccharide Pn15A
# [21] = biological target: pneumococcal polysaccharide Pn15B
# [22] = antibody concentration 0.1 ng/mL
# [23] = antibody concentration 0.534724 ng/mL
# [24] = antibody concentration 2.8593 ng/mL
# [25] = antibody concentration 15.2894 ng/mL
# [26] = antibody concentration 81.7561 ng/mL
# [27] = antibody concentration 437.17 ng/mL
# [28] = antibody concentration 2337.65 ng/mL
# [29] = antibody concentration 12500 ng/mL
binder,measurement,setting,value
B1,fluorescence intensity,[1],31 MFI
same,fluorescence intensity,[2]; [22],16.5 MFI
same,fluorescence intensity,[2]; [23],14 MFI
same,fluorescence intensity,[2]; [24],13.5 MFI
same,fluorescence intensity,[2]; [25],16 MFI
same,fluorescence intensity,[2]; [26],12.5 MFI
same,fluorescence intensity,[2]; [27],15.5 MFI
same,fluorescence intensity,[2]; [28],16.5 MFI
same,fluorescence intensity,[2]; [29],24 MFI
B2,fluorescence intensity,[3]; [22],24 MFI
same,fluorescence intensity,[3]; [23],25 MFI
same,fluorescence intensity,[3]; [24],24.2 MFI
same,fluorescence intensity,[3]; [25],27 MFI
same,fluorescence intensity,[3]; [26],24.5 MFI
same,fluorescence intensity,[3]; [27],29 MFI
same,fluorescence intensity,[3]; [28],37.8 MFI
same,fluorescence intensity,[3]; [29],131 MFI
same,fluorescence intensity,[4]; [22],19.5 MFI
same,fluorescence intensity,[4]; [23],19.5 MFI
same,fluorescence intensity,[4]; [24],20 MFI
same,fluorescence intensity,[4]; [25],20 MFI
same,fluorescence intensity,[4]; [26],20.8 MFI
same,fluorescence intensity,[4]; [27],22.5 MFI
same,fluorescence intensity,[4]; [28],31.2 MFI
same,fluorescence intensity,[4]; [29],106 MFI
same,fluorescence intensity,[5]; [22],14 MFI
same,fluorescence intensity,[5]; [23],12.5 MFI
same,fluorescence intensity,[5]; [24],12.5 MFI
same,fluorescence intensity,[5]; [25],12.5 MFI
same,fluorescence intensity,[5]; [26],13.5 MFI
same,fluorescence intensity,[5]; [27],13.5 MFI
same,fluorescence intensity,[5]; [28],17 MFI
same,fluorescence intensity,[5]; [29],40 MFI
same,fluorescence intensity,[6]; [22],25 MFI
same,fluorescence intensity,[6]; [23],25.5 MFI
same,fluorescence intensity,[6]; [24],25 MFI
same,fluorescence intensity,[6]; [25],26 MFI
same,fluorescence intensity,[6]; [26],26 MFI
same,fluorescence intensity,[6]; [27],24.5 MFI
same,fluorescence intensity,[6]; [28],26 MFI
same,fluorescence intensity,[6]; [29],39.5 MFI
same,fluorescence intensity,[7]; [22],23 MFI
same,fluorescence intensity,[7]; [23],25 MFI
same,fluorescence intensity,[7]; [24],25.8 MFI
same,fluorescence intensity,[7]; [25],23.5 MFI
same,fluorescence intensity,[7]; [26],21.5 MFI
same,fluorescence intensity,[7]; [27],24 MFI
same,fluorescence intensity,[7]; [28],25.8 MFI
same,fluorescence intensity,[7]; [29],33.5 MFI
same,fluorescence intensity,[8]; [22],14.5 MFI
same,fluorescence intensity,[8]; [23],16.5 MFI
same,fluorescence intensity,[8]; [24],16 MFI
same,fluorescence intensity,[8]; [25],15.2 MFI
same,fluorescence intensity,[8]; [26],17 MFI
same,fluorescence intensity,[8]; [27],16.8 MFI
same,fluorescence intensity,[8]; [28],18.5 MFI
same,fluorescence intensity,[8]; [29],27.5 MFI
same,fluorescence intensity,[9]; [22],21.5 MFI
same,fluorescence intensity,[9]; [23],18.5 MFI
same,fluorescence intensity,[9]; [24],18.8 MFI
same,fluorescence intensity,[9]; [25],20.2 MFI
same,fluorescence intensity,[9]; [26],19 MFI
same,fluorescence intensity,[9]; [27],19 MFI
same,fluorescence intensity,[9]; [28],21.2 MFI
same,fluorescence intensity,[9]; [29],30.5 MFI
same,fluorescence intensity,[10]; [22],27 MFI
same,fluorescence intensity,[10]; [23],27.5 MFI
same,fluorescence intensity,[10]; [24],29.5 MFI
same,fluorescence intensity,[10]; [25],29 MFI
same,fluorescence intensity,[10]; [26],26.2 MFI
same,fluorescence intensity,[10]; [27],29.5 MFI
same,fluorescence intensity,[10]; [28],36 MFI
same,fluorescence intensity,[10]; [29],51 MFI
same,fluorescence intensity,[11]; [22],24 MFI
same,fluorescence intensity,[11]; [23],26.2 MFI
same,fluorescence intensity,[11]; [24],23.5 MFI
same,fluorescence intensity,[11]; [25],26.2 MFI
same,fluorescence intensity,[11]; [26],25 MFI
same,fluorescence intensity,[11]; [27],27.5 MFI
same,fluorescence intensity,[11]; [28],31.2 MFI
same,fluorescence intensity,[11]; [29],41.8 MFI
same,fluorescence intensity,[12]; [22],23 MFI
same,fluorescence intensity,[12]; [23],22.5 MFI
same,fluorescence intensity,[12]; [24],21.2 MFI
same,fluorescence intensity,[12]; [25],20.5 MFI
same,fluorescence intensity,[12]; [26],20 MFI
same,fluorescence intensity,[12]; [27],24 MFI
same,fluorescence intensity,[12]; [28],40 MFI
same,fluorescence intensity,[12]; [29],140 MFI
same,fluorescence intensity,[13]; [22],21.5 MFI
same,fluorescence intensity,[13]; [23],22.5 MFI
same,fluorescence intensity,[13]; [24],22.5 MFI
same,fluorescence intensity,[13]; [25],23 MFI
same,fluorescence intensity,[13]; [26],23.5 MFI
same,fluorescence intensity,[13]; [27],24 MFI
same,fluorescence intensity,[13]; [28],29.5 MFI
same,fluorescence intensity,[13]; [29],78.2 MFI
same,fluorescence intensity,[14]; [22],11.5 MFI
same,fluorescence intensity,[14]; [23],13 MFI
same,fluorescence intensity,[14]; [24],16.2 MFI
same,fluorescence intensity,[14]; [25],14.5 MFI
same,fluorescence intensity,[14]; [26],15 MFI
same,fluorescence intensity,[14]; [27],17.2 MFI
same,fluorescence intensity,[14]; [28],18.8 MFI
same,fluorescence intensity,[14]; [29],26 MFI
same,fluorescence intensity,[15]; [22],14.5 MFI
same,fluorescence intensity,[15]; [23],13.5 MFI
same,fluorescence intensity,[15]; [24],14 MFI
same,fluorescence intensity,[15]; [25],14.5 MFI
same,fluorescence intensity,[15]; [26],15 MFI
same,fluorescence intensity,[15]; [27],16.2 MFI
same,fluorescence intensity,[15]; [28],22 MFI
same,fluorescence intensity,[15]; [29],44.8 MFI
same,fluorescence intensity,[16]; [22],16 MFI
same,fluorescence intensity,[16]; [23],15.5 MFI
same,fluorescence intensity,[16]; [24],14 MFI
same,fluorescence intensity,[16]; [25],14 MFI
same,fluorescence intensity,[16]; [26],15 MFI
same,fluorescence intensity,[16]; [27],18.8 MFI
same,fluorescence intensity,[16]; [28],21.5 MFI
same,fluorescence intensity,[16]; [29],48.2 MFI
same,fluorescence intensity,[17]; [22],17.8 MFI
same,fluorescence intensity,[17]; [23],18.8 MFI
same,fluorescence intensity,[17]; [24],16.8 MFI
same,fluorescence intensity,[17]; [25],18.5 MFI
same,fluorescence intensity,[17]; [26],17.8 MFI
same,fluorescence intensity,[17]; [27],20.2 MFI
same,fluorescence intensity,[17]; [28],21.5 MFI
same,fluorescence intensity,[17]; [29],44 MFI
same,fluorescence intensity,[18]; [22],18 MFI
same,fluorescence intensity,[18]; [23],20.5 MFI
same,fluorescence intensity,[18]; [24],18 MFI
same,fluorescence intensity,[18]; [25],18 MFI
same,fluorescence intensity,[18]; [26],19 MFI
same,fluorescence intensity,[18]; [27],17.5 MFI
same,fluorescence intensity,[18]; [28],23 MFI
same,fluorescence intensity,[18]; [29],39 MFI
same,fluorescence intensity,[19]; [22],14 MFI
same,fluorescence intensity,[19]; [23],15 MFI
same,fluorescence intensity,[19]; [24],14 MFI
same,fluorescence intensity,[19]; [25],14 MFI
same,fluorescence intensity,[19]; [26],14.5 MFI
same,fluorescence intensity,[19]; [27],16 MFI
same,fluorescence intensity,[19]; [28],24 MFI
same,fluorescence intensity,[19]; [29],99 MFI
same,fluorescence intensity,[20]; [22],12 MFI
same,fluorescence intensity,[20]; [23],12.2 MFI
same,fluorescence intensity,[20]; [24],13 MFI
same,fluorescence intensity,[20]; [25],13 MFI
same,fluorescence intensity,[20]; [26],13 MFI
same,fluorescence intensity,[20]; [27],14 MFI
same,fluorescence intensity,[20]; [28],14 MFI
same,fluorescence intensity,[20]; [29],19 MFI
same,fluorescence intensity,[21]; [22],17 MFI
same,fluorescence intensity,[21]; [23],18.8 MFI
same,fluorescence intensity,[21]; [24],19 MFI
same,fluorescence intensity,[21]; [25],18.5 MFI
same,fluorescence intensity,[21]; [26],17.5 MFI
same,fluorescence intensity,[21]; [27],21.5 MFI

# Another view of some results above.
binder	measurement	setting	value
B2	fluorescence intensity	[6]; [29]	39.5 MFI
same	fluorescence intensity	[7]; [27]	24 MFI
same	fluorescence intensity	[18]; [25]	18 MFI

# 4 entries picked at random from those above, as already listed:
binder,measurement,setting,value
B2,fluorescence intensity,[21]; [26],17.5 MFI
same,fluorescence intensity,[6]; [28],26 MFI
same,fluorescence intensity,[8]; [26],17 MFI
B1,fluorescence intensity,[2]; [29],24 MFI
